Experimental data as given in paper doi:10.1101/564799.
Results are given in words; binding and its absence hold for the method and conditions named. Some results given as binding are weak or reduced against the parent protein; the word gives no strength.

Chains of the proteins cited; added tags and fusions are not shown.
UniProt Q96FX7, whole entry: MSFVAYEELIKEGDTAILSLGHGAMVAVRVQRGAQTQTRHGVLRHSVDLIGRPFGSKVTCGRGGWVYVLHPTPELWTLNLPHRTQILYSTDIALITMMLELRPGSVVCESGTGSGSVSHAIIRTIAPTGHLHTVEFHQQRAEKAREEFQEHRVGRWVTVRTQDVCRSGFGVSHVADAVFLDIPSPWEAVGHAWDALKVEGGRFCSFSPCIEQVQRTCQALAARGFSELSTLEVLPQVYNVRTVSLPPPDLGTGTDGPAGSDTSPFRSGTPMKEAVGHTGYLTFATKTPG

Target: TRMT61A (subunit of the recombinant human TRMT6/61A dimer) (human) (UniProt Q96FX7)
Assay: co-purification

- binding: binds
B1: TRMT6 (subunit of the recombinant human TRMT6/61A dimer) (protein, UniProt Q9UJA5 1-497)
chain: MEGSGEQPGPQPQHPGDHRIRDGDFVVLKREDVFKAVQVQRRKKVTFEKQWFYLDNVIGHSYGTAFEVTSGGSLQPKKKREEPTAETKEAGTDNRNIVDDGKSQKLTQDDIKALKDKGIKGEEIVQQLIENSTTFRDKTEFAQDKYIKKKKKKYEAIITVVKPSTRILSIMYYAREPGKINHMRYDTLAQMLTLGNIRAGNKMIVMETCAGLVLGAMMERMGGFGSIIQLYPGGGPVRAATACFGFPKSFLSGLYEFPLNKVDSLLHGTFSAKMLSSEPKDSALVEESNGTLEEKQASEQENEDSMAEAPESNHPEDQETMETISQDPEHKGPKERGSKKDYIQEKQRRQEEQRKRHLEAAALLSERNADGLIVASRFHPTPLLLSLLDFVAPSRPFVVYCQYKEPLLECYTKLRERGGVINLRLSETWLRNYQVLPDRSHPKLLMSGGGGYLLSGFTVAMDNLKADTSLKSNASTLESHETEEPAAKKRKCPESDS
